Data from publication PMC9468604.
No constants are given. Whether binding was seen depends on the method and setting. Some entries that bind do so weakly or less than the wild type. Sequences can lack the tags named with a protein.

Biological target: T1, PATZ2 BTB domain (NLS-tagGFP-BTB or tagRFP-BTB fusion) (human), O43167
T1 chain: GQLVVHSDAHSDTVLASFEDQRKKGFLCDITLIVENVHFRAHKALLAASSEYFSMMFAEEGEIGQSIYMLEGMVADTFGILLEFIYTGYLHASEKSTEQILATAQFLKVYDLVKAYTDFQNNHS
Assay: two-hybrid; fluorescent two-hybrid (F2H) in live BHK-1 cells with a genomic LacO array; the tagGFP-BTB fusion is held at the LacO focus by GBP-LacI, a co-localised focus of the tagRFP-BTB fusion is scored by fluorescence microscopy 24 h after transfection; colocalization = percentage of GFP foci-positive cells also positive for RFP foci
Details: remark: other sources report otherwise

binding: binds
B1: PATZ2 BTB domain (NLS-tagGFP-BTB or tagRFP-BTB fusion), O43167 10-133 (domain or fragment)
chain: T1 chain
